{"source": "patent US10905676B2", "about": "“Angiotensin II receptor antagonist for the prevention or treatment of systemic diseases in cats” (priority 2017, dated 2021)", "key": {"[1]": {"assay": "Safety after repeated oral administration over four weeks (Example 3)", "format": "in vivo, cats", "description": "5-5. 1 kg were used in this study. The animals were allocated to 3 groups, 4 animals per group. […] The bottles with the test/control article looked identical with the exception of the animal no. in order to achieve blinding.\nBlood samples for haematology and clinical chemistry were collected from the animals on days-1 (i.e. prior to the first treatment) and again on days 3, 7, 14, 28. Body weights were measured weekly and electrocardiography recording were made on days −1, 14, 21 and 28. A detailed physical examination including determination of rectal temperature and respiratory rate was carried out on days -1, 7, 14, 22 and 28. Systolic blood pressure (once daily) and heart rate (twice daily) were determined five days per week beginning prior to treatment until necropsy. The palatability of the administered article was assessed at various time points throughout treatment using a scoring system. On day 28 of the study, all animals were subjected to necropsy and stomach and kidneys were examined histopathologically. Relevant parameters were analysed using appropriate statistical procedures."}, "[2]": {"tested_on": "cats with systemic hypertension", "assay": "Six-month extended-use study in cats with systemic hypertension (Example 5)", "format": "in vivo", "conditions": "CKD and CKD and hyperthyroid subpopulations", "description": "The primary variables for assessment in this extensive use study were adverse events and change from baseline in retinal photographs. […] No placebo group was used in this study. […] The maintenance dose was down-titrated if the mSBP was below the target range of 120-160 mmHg at any visit. In those cases, the dose was reduced to 1 mg/kg and further reduced to 0.5 mg/kg SID if mSBP remained below the target range. […] All parameters were evaluated by the Investigator for clinical significance. The parameters were then compared to baseline, and changes were summarized by treatment group as well as by subpopulation, if appropriate."}, "[3]": {"tested_on": "cats with moderate to severe systemic hypertension", "assay": "European study of efficacy and safety in cats with systemic hypertension (Example 6)", "format": "in vivo", "conditions": "2 mg/kg oral solution, 28 days efficacy phase", "description": "A European study was conducted to investigate the efficacy and safety of telmisartan oral solution for the treatment of systemic hypertension in cats. The first part or phase of the study (Day 1 to Day 28) occurred over a 28-day placebo-controlled, double-blinded treatment period (efficacy phase of the study). […] The target population for this study was domestic client-owned cats with moderate to severe systemic hypertension (cats having a mSBP of at least about 160 mmHg). […] A schematic overview of the study and the two phases of treatment is depicted in FIG. 3. There was a similar pre-treatment mSBP observed for both treatment groups (about 177-179 mmHg). Cats diagnosed with moderate to severe systemic hypertension in compliance with the “ACVIM consensus statement: Guidelines for the Identification, Evaluation, and Management of Systemic Hypertension in Dogs and Cats” (Brown et al. Guidelines for the identification, evaluation, and management of systemic hypertension in dogs and cats. ACVIM Consensus Statement. J Vet Intern Med 2007; 21: 542-558) at two separate Screening Visits within 14 days of the start of treatment were eligible for the study. The etiology of the hypertension was classified as due to chronic kidney disease (CKD), due to hyperthyroidism, due to both CKD and hyperthyroidism or as idiopathic hypertension. […]"}, "[4]": {"tested_on": "angiotensin II receptor 1 (AT-1)", "assay": "Angiotensin II induced increase in diastolic blood pressure in laboratory cats after oral dosing", "format": "in vivo", "conditions": "approximately 24 hours after the last oral dosing, target dose compared with Placebo"}}, "note": "At least one structure is not confirmed: it was looked up by name or label, or the drawing left a doubt."}
{"smiles": "CCCc1nc2c(C)cc(-c3nc4ccccc4n3C)cc2n1Cc1ccc(-c2ccccc2C(=O)O)cc1", "note": "[telmisartan, 4′-[2-n-propyl-4-methyl-6-(1-methylbenzimidazol-2-yl)-benzimidazol-1-ylmethyl]-biphenyl-2-carboxylic acid]", "values": [{"measurement": "systolic blood pressure compared to control group I", "setting": "[1]; groups II and III, single occasions after initiation of treatment", "result": "significantly lower"}, {"measurement": "systolic blood pressure, course of the mean values over time", "setting": "[1]; towards the end of the study period (from day 20 onwards)", "result": "tendency of a slight reduction"}, {"measurement": "cats scored as \"worse\" in the IRIS blood pressure sub-staging", "setting": "[2]", "result": "zero"}, {"measurement": "reduction of mSBP in comparison with placebo", "setting": "[3]", "result": "superior to placebo"}, {"measurement": "diastolic blood pressure responses to increasing intravenous doses of Angiotensin II", "setting": "[4]", "result": "significantly reduced"}]}
